Earlier results in PMC9865396, “The Effect of the Particle Size Reduction on the Biorelevant Solubility and Dissolution of Poorly Soluble Drugs with Different Acid-Base Character” (Pharmaceutics, 2023).
Where a name gives a salt, the structure may show the parent alone.

Conditions: cited from earlier work
In the case of `NS(=O)(=O)c1cc(C(=O)O)c(NCc2ccco2)cc1Cl` [FUR original, furosemide], the BCS class is given as “BCS IV”.
For `O=C(O)c1cccnc1Nc1cccc(C(F)(F)F)c1` [NIF original, Niflumic acid], the BCS class is given as “BCS II”.
For `COc1ccc(Cc2nccc3cc(OC)c(OC)cc23)cc1OC` [PAP original, papaverine hydrochloride], the BCS class is given as “BCS II”.
